In patent publication US20250332199A1:
These are yes or no findings as the source states them, for the method shown. Some binding calls cover weakened binding; strength is not graded here.

Sequences of proteins named here, by UniProt entry; tags and fusion partners are left off. Residues count along the entry.
UniProt Q96RJ3, residues 1-71: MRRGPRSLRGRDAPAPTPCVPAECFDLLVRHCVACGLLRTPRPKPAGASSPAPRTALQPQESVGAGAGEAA

Target: BAFF-R-CAR
Test: flow cytometry of Zip-sorted T cells; by paragraph 330 staining with 1 ug hBAFF-R hFc followed by anti-hFc antibody

binding: binds
Substance: hBAFF-R hFc (from UniProt Q96RJ3) (Fc fusion)
